Assay results from publication PMC7524721.
No constants are given. Whether binding was seen depends on the method and setting. Binding seen in cells or lysates may run through a third protein. Some results given as binding are weak or reduced against the parent protein; the word gives no strength.

Sequences of proteins named here, by UniProt entry; tags and fusion partners are left off.
UniProt Q9UKV8: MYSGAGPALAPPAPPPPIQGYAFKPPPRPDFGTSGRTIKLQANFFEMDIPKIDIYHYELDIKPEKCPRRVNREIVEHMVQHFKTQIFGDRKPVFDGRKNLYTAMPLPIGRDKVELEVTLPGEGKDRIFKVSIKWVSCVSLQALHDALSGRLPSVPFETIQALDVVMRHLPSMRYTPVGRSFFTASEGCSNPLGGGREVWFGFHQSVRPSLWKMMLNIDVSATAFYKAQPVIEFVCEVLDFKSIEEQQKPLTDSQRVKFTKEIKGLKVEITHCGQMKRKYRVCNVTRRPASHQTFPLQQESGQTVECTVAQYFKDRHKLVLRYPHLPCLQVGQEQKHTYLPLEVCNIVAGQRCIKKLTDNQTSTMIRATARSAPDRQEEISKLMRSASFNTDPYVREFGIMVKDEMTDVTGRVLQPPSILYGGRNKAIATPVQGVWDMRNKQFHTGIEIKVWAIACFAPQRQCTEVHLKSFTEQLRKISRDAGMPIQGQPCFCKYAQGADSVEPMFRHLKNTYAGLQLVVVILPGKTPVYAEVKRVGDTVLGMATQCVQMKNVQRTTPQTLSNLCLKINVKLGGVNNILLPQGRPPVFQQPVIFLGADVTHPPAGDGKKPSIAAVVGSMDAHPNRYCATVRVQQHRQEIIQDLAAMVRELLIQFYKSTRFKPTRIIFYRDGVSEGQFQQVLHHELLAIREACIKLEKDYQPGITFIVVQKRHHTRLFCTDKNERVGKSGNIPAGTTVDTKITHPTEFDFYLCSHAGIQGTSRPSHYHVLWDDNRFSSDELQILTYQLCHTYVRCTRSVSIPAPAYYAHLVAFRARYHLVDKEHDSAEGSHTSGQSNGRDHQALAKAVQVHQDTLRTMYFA

Legend:
Assay in all cases: co-IP; HEK 293 T cells transfected and lysed; lysates cleared at 15,000g and 100,000g at 4 °C; Flag M2 sepharose beads 2 h at 4 °C; washed with lysis buffer; Western blot
[1] = target: T1, INVERSIN (NPHP2) (human) (UniProt Q9Y283)
T1 sequence: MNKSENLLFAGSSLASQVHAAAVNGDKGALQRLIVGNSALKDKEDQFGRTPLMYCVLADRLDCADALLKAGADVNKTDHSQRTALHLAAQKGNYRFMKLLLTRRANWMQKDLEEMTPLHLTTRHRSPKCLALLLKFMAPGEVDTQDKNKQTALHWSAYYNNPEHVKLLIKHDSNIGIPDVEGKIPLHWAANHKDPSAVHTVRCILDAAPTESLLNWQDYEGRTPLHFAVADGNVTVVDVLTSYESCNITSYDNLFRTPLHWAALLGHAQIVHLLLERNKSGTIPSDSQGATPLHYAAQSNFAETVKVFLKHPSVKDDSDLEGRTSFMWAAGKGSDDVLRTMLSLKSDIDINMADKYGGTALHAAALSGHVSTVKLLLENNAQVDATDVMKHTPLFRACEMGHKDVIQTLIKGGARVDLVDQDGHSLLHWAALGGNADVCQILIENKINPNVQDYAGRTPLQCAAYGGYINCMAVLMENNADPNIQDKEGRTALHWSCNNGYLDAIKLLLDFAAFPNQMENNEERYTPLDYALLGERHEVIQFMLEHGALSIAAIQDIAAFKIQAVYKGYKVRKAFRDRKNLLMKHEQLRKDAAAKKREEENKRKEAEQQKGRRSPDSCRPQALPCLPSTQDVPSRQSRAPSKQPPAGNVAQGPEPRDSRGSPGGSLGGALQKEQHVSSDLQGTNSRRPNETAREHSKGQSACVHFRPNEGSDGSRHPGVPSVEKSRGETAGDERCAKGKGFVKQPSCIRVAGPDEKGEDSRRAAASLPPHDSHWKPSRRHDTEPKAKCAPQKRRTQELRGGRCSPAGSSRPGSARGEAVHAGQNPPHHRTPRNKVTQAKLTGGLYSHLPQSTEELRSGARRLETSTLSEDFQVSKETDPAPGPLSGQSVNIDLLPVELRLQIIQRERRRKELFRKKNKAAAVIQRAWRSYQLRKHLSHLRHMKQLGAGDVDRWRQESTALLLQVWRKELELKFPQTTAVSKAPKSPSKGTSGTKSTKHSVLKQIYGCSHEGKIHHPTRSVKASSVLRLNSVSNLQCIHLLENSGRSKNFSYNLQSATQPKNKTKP

[2] = target: T2, ANKS6 (NPHP16) (not stated (human or rat cDNA cloned)) (UniProt Q68DC2)
T2 sequence: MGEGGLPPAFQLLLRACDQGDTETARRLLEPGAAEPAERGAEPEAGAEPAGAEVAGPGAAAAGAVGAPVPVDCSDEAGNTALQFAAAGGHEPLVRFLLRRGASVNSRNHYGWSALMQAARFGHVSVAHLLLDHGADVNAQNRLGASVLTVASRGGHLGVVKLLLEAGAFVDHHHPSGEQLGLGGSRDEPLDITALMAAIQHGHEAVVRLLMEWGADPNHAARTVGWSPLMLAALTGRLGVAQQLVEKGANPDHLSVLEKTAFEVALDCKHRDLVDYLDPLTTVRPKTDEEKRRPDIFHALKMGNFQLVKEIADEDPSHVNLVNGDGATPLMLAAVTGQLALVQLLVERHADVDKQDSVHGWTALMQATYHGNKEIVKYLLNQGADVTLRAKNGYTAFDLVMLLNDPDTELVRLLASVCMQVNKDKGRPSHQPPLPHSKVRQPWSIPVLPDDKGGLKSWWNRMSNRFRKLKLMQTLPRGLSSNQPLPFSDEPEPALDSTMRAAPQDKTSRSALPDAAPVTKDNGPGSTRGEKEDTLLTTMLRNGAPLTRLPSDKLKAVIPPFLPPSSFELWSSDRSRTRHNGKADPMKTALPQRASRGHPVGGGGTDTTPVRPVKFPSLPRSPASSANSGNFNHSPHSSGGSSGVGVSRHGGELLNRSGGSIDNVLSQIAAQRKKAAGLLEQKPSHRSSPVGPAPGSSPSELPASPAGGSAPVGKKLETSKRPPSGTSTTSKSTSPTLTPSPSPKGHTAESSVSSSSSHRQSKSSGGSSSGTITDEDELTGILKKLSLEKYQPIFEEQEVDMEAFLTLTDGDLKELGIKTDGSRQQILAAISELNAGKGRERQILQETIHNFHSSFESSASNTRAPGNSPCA

[3] = target: T3, ANKS3 (not stated (human or mouse cDNA cloned)) (UniProt Q6ZW76)
T3 sequence: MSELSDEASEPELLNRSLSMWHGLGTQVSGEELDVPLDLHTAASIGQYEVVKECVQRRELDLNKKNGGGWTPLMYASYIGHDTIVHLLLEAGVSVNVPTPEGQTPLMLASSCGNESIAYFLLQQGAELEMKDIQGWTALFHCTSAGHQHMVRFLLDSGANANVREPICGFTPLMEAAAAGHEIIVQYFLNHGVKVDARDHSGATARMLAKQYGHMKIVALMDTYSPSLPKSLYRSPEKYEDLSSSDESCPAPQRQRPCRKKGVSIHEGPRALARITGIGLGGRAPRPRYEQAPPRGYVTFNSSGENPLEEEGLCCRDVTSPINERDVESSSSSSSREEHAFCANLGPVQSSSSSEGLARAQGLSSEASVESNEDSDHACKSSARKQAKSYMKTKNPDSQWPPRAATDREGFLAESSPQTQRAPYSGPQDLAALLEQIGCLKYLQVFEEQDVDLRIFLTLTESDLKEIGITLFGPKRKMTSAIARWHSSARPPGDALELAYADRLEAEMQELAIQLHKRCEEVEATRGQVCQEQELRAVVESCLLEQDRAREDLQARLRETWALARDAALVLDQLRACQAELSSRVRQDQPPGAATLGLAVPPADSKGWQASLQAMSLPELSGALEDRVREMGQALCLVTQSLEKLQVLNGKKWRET

[4] = target: T4, BICC1 (mouse) (UniProt Q99MQ1)
T4 sequence: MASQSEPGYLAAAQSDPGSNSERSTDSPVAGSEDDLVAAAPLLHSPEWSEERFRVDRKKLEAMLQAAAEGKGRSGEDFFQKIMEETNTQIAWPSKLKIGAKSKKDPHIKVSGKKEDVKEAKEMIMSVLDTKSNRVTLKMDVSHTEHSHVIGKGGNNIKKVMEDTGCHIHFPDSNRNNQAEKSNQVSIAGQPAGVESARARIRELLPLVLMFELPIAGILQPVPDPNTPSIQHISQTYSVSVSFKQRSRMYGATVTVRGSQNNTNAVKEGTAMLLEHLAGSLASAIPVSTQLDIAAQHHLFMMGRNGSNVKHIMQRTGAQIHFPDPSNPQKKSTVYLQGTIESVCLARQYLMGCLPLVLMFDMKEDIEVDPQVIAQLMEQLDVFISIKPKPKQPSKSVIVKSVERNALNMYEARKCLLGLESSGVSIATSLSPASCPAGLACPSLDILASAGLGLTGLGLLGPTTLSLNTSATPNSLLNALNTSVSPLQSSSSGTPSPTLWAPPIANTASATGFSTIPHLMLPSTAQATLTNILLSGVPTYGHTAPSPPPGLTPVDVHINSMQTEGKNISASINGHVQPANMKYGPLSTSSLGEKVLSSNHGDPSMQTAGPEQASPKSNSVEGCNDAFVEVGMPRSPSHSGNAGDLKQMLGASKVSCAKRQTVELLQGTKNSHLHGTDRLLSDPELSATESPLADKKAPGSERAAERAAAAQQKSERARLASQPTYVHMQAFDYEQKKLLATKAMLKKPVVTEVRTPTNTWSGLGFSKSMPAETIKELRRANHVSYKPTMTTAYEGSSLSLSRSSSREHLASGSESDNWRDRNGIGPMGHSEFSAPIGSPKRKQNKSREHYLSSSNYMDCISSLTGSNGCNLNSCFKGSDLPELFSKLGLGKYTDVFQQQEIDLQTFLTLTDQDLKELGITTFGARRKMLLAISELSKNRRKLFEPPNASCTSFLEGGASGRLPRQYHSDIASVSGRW

Measured: binding

AGO2 (from UniProt Q9UKV8 1-859)
binds: all assays above
